# The inconclusive results got no clear call from the source; some entries with a clear call stand among them for comparison. For some assays here: Potencies of inconclusive entries are doubtful fits and often do not repeat. The source made the active and inactive calls. The calls were made as follows: active = hit-call score of the fitted dose curve at least 0.9, where 1 is the maximum; inconclusive = response in the unintended direction; inactive = score below 0.9.
# Protein sequences, listed by entry. Tags and fused reporters are not part of them. Lines headed by an entry give the natural chain unless they say otherwise; changes in a name come on top.
# UniProt P24666: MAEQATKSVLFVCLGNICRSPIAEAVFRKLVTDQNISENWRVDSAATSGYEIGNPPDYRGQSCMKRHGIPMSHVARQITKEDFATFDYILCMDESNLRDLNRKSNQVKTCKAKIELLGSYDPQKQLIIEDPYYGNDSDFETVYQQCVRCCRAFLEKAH
# UniProt O75582, whole entry, looked up: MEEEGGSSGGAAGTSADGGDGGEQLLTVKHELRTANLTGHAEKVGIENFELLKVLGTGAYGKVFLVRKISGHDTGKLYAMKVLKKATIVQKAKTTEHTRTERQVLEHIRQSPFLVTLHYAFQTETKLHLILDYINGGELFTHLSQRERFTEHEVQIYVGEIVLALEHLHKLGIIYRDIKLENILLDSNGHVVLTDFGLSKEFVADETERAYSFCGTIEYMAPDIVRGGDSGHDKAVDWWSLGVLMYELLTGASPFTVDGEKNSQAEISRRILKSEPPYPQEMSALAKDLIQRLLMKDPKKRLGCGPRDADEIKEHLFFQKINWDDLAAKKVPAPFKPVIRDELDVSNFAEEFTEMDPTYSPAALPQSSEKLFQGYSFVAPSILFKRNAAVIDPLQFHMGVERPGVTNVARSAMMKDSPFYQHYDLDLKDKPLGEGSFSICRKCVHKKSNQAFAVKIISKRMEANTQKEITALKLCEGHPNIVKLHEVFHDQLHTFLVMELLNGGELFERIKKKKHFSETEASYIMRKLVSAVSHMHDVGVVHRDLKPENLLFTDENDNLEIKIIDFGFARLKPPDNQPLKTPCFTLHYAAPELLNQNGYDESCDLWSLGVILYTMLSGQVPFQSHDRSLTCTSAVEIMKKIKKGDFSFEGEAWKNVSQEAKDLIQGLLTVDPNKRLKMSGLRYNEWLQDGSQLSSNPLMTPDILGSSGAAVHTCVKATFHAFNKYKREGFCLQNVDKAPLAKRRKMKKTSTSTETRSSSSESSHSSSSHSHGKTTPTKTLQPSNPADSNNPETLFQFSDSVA
# UniProt Q08E50: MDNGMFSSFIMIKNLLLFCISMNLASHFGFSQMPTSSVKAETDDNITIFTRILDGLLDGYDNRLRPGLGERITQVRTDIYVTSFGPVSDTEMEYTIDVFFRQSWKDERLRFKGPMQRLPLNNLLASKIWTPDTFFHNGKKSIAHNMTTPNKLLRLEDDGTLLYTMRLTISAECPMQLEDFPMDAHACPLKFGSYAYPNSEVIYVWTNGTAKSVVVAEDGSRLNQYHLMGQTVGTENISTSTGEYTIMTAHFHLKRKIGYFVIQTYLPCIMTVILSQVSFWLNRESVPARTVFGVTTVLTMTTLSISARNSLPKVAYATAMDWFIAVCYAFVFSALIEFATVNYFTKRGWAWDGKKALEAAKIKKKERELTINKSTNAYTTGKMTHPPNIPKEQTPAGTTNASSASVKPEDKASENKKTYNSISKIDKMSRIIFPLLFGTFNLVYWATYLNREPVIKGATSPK
# UniProt P08219: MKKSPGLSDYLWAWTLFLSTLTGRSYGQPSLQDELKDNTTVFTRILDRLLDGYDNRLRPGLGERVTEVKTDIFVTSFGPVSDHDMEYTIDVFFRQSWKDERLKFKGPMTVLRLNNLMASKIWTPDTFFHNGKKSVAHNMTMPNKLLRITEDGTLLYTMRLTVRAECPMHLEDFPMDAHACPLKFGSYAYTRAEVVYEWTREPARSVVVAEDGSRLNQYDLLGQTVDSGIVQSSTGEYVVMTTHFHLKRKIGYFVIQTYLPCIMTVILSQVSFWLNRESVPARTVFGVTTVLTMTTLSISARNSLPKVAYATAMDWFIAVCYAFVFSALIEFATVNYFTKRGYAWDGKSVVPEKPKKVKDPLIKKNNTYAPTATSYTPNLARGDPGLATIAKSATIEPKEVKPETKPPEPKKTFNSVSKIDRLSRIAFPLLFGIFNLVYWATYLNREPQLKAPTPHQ
# UniProt P06276, whole entry, looked up: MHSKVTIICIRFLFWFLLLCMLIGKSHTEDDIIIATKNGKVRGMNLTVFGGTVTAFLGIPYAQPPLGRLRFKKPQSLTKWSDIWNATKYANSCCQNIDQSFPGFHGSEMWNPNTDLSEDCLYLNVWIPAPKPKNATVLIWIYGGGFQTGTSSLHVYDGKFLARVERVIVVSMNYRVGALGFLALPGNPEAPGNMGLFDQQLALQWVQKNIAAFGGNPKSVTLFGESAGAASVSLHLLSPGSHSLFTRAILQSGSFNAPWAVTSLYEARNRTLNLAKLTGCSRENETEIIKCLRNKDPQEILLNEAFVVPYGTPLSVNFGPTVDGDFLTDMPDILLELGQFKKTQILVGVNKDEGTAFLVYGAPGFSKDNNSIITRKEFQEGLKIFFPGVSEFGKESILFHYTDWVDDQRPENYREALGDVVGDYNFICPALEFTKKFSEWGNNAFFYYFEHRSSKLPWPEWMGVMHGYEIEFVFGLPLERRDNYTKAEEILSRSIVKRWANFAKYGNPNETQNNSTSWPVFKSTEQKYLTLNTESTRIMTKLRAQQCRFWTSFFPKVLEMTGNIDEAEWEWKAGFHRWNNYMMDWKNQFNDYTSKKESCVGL
# UniProt P10827: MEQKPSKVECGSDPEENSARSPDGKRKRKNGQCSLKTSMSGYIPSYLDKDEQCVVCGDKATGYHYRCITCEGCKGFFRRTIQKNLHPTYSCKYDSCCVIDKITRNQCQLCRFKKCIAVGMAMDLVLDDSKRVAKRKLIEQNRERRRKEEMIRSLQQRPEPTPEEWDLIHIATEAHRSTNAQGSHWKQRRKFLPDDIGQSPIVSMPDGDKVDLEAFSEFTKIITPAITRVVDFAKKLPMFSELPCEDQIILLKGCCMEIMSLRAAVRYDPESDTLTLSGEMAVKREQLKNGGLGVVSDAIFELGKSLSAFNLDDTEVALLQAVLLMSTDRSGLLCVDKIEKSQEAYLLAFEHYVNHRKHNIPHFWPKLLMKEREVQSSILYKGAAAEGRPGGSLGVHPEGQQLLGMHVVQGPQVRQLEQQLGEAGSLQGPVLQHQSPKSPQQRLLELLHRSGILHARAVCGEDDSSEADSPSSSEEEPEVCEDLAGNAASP
# What was measured:
# [1] = system: Sodium/Iodide Symporter (NIS), SLC5A5 (gene 6528); assay: CPHEA_Stoker_NIS_Inhibition_RAIU: CPHEA's Radioactive Iodide Uptake (RAIU) Assay for Sodium/Iodide Symporter (NIS) Inhibition, Stoker and Laws Labs (AID 2283841)
# In short: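 Iodide uptake read as CPM of intracellular 125I (final 329 pM) after 2 h room-temperature exposure in HEPES-buffered HBSS, pH 7.4. Human NIS-expressing HEK293T cells; six concentrations 0.001–100 uM, 0.5% DMSO, normalised to DMSO wells.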
# [2] = target: human Acid Phosphatase 1 (ACP1), ACP1 (gene 52) (UniProt P24666); assay: NVS_ENZ_hACP1: NovaScreen (NVS) Enzymatic Assay for human Acid Phosphatase 1 (ACP1) (AID 2283136)
# In short: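 Cell-free fluorescence read-out of phosphatase activity, substrate and product separated by mobility shift, taken 1.5 h after compound addition; protein produced in Sf9. Single 25 uM duplicate screen, followed by concentration series for actives, scored as signal loss relative to DMSO.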
# [3] = target: human Mitogen- and Stress-activated Protein Kinase-1 (Msk1), RPS6KA5 (gene 9252) (UniProt O75582); assay: NVS_ENZ_hMsk1: NovaScreen (NVS) Enzymatic Assay for human Mitogen- and Stress-activated Protein Kinase-1 (Msk1) (AID 2283187)
# In short: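 Chemicals first run in duplicate at 25 uM, with actives followed up in singleton concentration series to 50 uM maximum. Enzyme activity came from substrate/product mobility-shift separation with fluorescence detection after 1 h incubation of the recombinant protein.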
# [4] = target: bovine Gamma-Aminobutyric Acid Type A Receptor BDZ, alpha 5 site (GABARa5), GABRA5 (gene 523515) (UniProt Q08E50); assay: NVS_LGIC_bGABARa5: NovaScreen (NVS) Ligand-Gated Ion Channel Assay for bovine Gamma-Aminobutyric Acid Type A Receptor BDZ, alpha 5 site (GABARa5) (AID 2283323)
# In short: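 Tested first in duplicate at a single 25 uM, with hits re-run in concentration series to a 50 uM maximum. Bovine hippocampal membranes; specific radioligand displacement measured by filter scintillation counting 1 hr post-dose.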
# [5] = target: bovine Gamma-Aminobutyric Acid Type A Receptor Agonist (GABAR Agonist), GABRA1 (gene 780973) (UniProt P08219); assay: NVS_LGIC_bGABAR_Agonist: NovaScreen (NVS) Ligand-Gated Ion Channel Assay for bovine Gamma-Aminobutyric Acid Type A Receptor Agonist (GABAR Agonist) (AID 2283338)
# In short: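 Radioligand binding to bovine cerebellar membranes in agonist format, read by filter-based scintillation counting after 1 h. Primary screen in duplicate at 25 uM, with actives followed in concentration series. Gain of signal versus DMSO.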
# [6] = ArunA_Migration_hNC: ArunA Biomedical's Oris Neural Crest (hNC) Cell Migration Assay (AID 2283755)
# In short: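 Calcein-AM fluorescence (ex494 nm/em 517 nm) in the stopper-defined detection zone quantifies migration of hNC cells after 72 h chemical exposure; 60,000 cells/well plated on Matrigel with LIF and bFGF, 16 h pre-incubation. DMSO baseline.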
# [7] = ArunA_NOG_NeuritesPerNeuron: ArunA Biomedical's Neurite Outgrowth (NOG) Assay for Neurites Per Neuron (AID 2283758)
# In short: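 Differentiated human H9-derived neurons exposed to chemicals for 48 h from seeding, then stained with Hoechst and βIII-tubulin/DyLight 488. Automated imaging counted neurites (processes >10 um) per valid neuron; loss of signal versus DMSO scored.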
# [8] = ArunA_NOG_BranchPointsPerNeurite: ArunA Biomedical's Neurite Outgrowth (NOG) Assay for Branch Points Per Neurite (AID 2283759)
# In short: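 Automated image analysis traced neurites (processes >10 um) from valid cell bodies after Hoechst and βIII-tubulin staining. hNN cells from H9 embryonic stem cells, 48 h exposure. Fitted bidirectionally against DMSO.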
# [9] = VALA_TUBHUV_Agonist_CellCount: Viability Assessment in the VALA Sciences human Umbilical Vein Endothelial Tubule Formation (TUBHUV) Agonism Assay (AID 2284309)
# In short: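 Viability endpoint by fluorescent imaging of fixed nuclear/CD31-stained HUVEC–HDF co-cultures. Readout is cell count, fitted upward against 0.1% DMSO. Compound exposure was 72 h in 10 ng/ml VEGF, after 3-day co-culture priming.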
# [10] = VALA_MIGHUV1_ScratchOnly_WoundArea: VALA Sciences human Umbilical Vein Endothelial Cell Migration (MIGHUV) Assay, Area of Scratch Wound Inhibited Recovery (AID 2284336)
# In short: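 Wound area remaining after 24 h recovery imaged by Hoechst nuclear fluorescence in scratched HUVEC cultures, chemicals added within 30 min of scratching across a 6-point series. Gain of signal fitted against 0.1% DMSO; cytochalasin D positive control.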
# [11] = VALA_TUBHUV_Agonist_TubuleLength: VALA Sciences human Umbilical Vein Endothelial Tubule Formation (TUBHUV) Agonism Assay (AID 2284337)
# In short: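 Tubule length quantified by CD31 immunofluorescence imaging after fixation. HUVEC-HDF co-cultures (1:3) pre-grown 3 days with 10 ng/ml VEGF, then dosed 3 days in VEGF medium; 0.1 % DMSO vehicle baseline.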
# [12] = VALA_TUBIPS_Agonist_CellCount: Viability Assessment in the VALA Sciences human iPS-derived Endothelial Tubule Formation (TUBIPS) Agonism Assay (AID 2284338)
# [13] = system: SRY-box transcription factor 2 (SOX2) Protein Expression, Deisenroth Lab, SOX2 (gene 6657); assay: CCTE_Deisenroth_DEVTOX-GLR_Endo_SOX2: CCTE's DevTox GLR-Endo Assay Evaluation of SRY-box transcription factor 2 (SOX2) Protein Expression, Deisenroth Lab (AID 2284412)
# In short: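 Endpoint is percent SOX2-positive cells (SOX2+ count/total cells) minus 0.2% DMSO control, from high-content imaging of fixed, nuclear-stained RUES2-GLR cells. Dosing twice at 24 h intervals over 48 h differentiation, 1 nM–200 uM in 10 points.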
# [14] = target: human Esterase Plasma (ES), BCHE (gene 590) (UniProt P06276); assay: NVS_ENZ_hES: NovaScreen (NVS) Enzymatic Assay for human Esterase Plasma (ES) (AID 2283157)
# In short: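 Primary single-concentration screen at 25 uM in duplicate, then concentration-response to a 50 uM top dose. Human plasma esterase activity detected colorimetrically after 0.25 h incubation, with DMSO as baseline.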
# [15] = target: cAMP-dependent protein kinase catalytic subunit alpha (Homo sapiens) (UniProt P17612); assay: NVS_ENZ_hPKA: NovaScreen (NVS) Enzymatic Assay for human Protein Kinase A (PKA) (AID 2283192)
# In short: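 Cell-free kinase activity read by fluorescence after mobility-shift separation of substrate and product, 1 h post-dosing. Single-concentration duplicate screen (25 uM) preceded singleton concentration series (top 50 uM); loss of signal versus DMSO.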
# [16] = target: THRA (gene 7067) (UniProt P10827); assay: TOX21_TRA_COA_Antagonist_Followup_ratio: Tox21 Thyroid Hormone Receptor alpha Antagonism through Coactivator Recruitment Follow-Up Assay, Ratio (AID 2283953)
# In short: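 We measured antagonism of T3-type coactivator recruitment using a TR-FRET ratio (emission 520 and 495 nm) between a Tb-labelled anti-GST antibody on TRα LBD (2.5 nM) and SRC-2 peptide (200 nM). Activity was scaled between DMSO and T3 wells.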
# [17] = TOX21_TR_RXR_BLA_Antagonist_Followup_viability: Viability Assessment in the Tox21 Thyroid Hormone Receptor beta Retinoid X Receptor alpha (RXRa) Antagonism Beta-lactamase (BLA) Follow-Up Assay (AID 2283979)
# In short: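 Follow-up compounds (11 concentrations, triplicate) were incubated 16 h at 37C/5% CO2 with HEK293T RXRa-bla cells seeded at 2,500/well in charcoal-stripped-serum medium. ATP content by CellTiter-Glo luminescence gave viability; curves fitted in both directions against DMSO.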
# [18] = CCTE_Mundy_HCI_hN2_NOG_NeuriteLength: CCTE's Neurite Outgrowth Assay in human hN2 cells for Neurite Length, Mundy Lab (AID 2284220)
# In short: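 Plate hNP1-derived neurons, then add chemical 2 h later as a 1/10 dilution. Stain with anti-βIII-tubulin then Alexa Fluor-488 secondary, and image automatically to measure neurite length.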
# [19] = TAMU_PeakParms_SingleDonor1434_QT: Texas A&M University (TAMU) 1.5-hr Human Induced Pluripotent Stem Cell (iPSC)-derived Cardiomyocytes Calcium (Ca+2) Flux Assay for Cardiotoxicity: QT (decay-rise ratio) (AID 2284235)
# In short: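 Decay/rise ratio of calcium-flux fluorescence scored after 90 min exposure (37C) of donor 1434 iPSC cardiomyocytes to 0.2–100 uM (0.5% DMSO). Beat-cessation and severe-notch points removed; POD is EC05, a 5% rise over DMSO.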
# [20] = CCTE_Mundy_HCI_Cortical_Synap_Neur_Matur_NeuronCount: CCTE's Synaptogenesis and Neurite Maturation Assay in rat cortical cells for Neuron Count, Mundy Lab (AID 2284242);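 also: hits reduce neuron count versus DMSO baseline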
# In short: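 Measured at DIV 12: fluorescently labelled neurons (Hoechst nuclei, MAP2) in rat primary cortical cultures, counted by high-content imaging. AraC suppressed glia from DIV 5; DMSO served as negative control.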
smiles,measurement,setting,value
CCCCC/C=C\C/C=C\CCCCCCCC(=O)O,outcome,[1],inactive
CCCC(CCC)C(=O)O,AC50,[2],inconclusive: 6.85 µM
same,outcome,[3],inactive
same,AC50,[4],inconclusive: 0.232 µM
same,AC50,[5],inconclusive: 0.085 µM
same,AC50,[6],inconclusive: 0.0337 µM
same,AC50,[7],active: 91.1 µM
same,AC50,[8],active: 69.6 µM
same,AC50,[9],inconclusive: 9.92 µM
same,AC50,[10],inconclusive: 50 µM
same,AC50,[11],inconclusive: 0.00107 µM
same,AC50,[12],inconclusive: 50 µM
same,AC50,[13],inconclusive: 0.112 pM
Cc1ncc([C@@H](CCCCCCc2ccc3c(n2)NCCC3)CC(=O)O)cn1,AC50,[14],inconclusive: 25 µM
same,AC50,[15],inconclusive: 25 µM
COc1cc2c(c(OC)c1OC)-c1ccc(OC)c(=O)cc1[C@@H](NC(C)=O)CC2,AC50,[16],inconclusive: 38.3 µM
same,AC50,[17],inconclusive: 38.3 µM
same,AC50,[18],active: 0.00931 µM
same,outcome,[19],inactive
same,AC50,[20],active: 0.0339 µM

# Already shown: entries from further up.
smiles,measurement,setting,value
CCCC(CCC)C(=O)O,AC50,[10],inconclusive: 50 µM
same,AC50,[11],inconclusive: 0.00107 µM
same,AC50,[12],inconclusive: 50 µM
same,AC50,[13],inconclusive: 0.112 pM

# Source: PubChem BioAssay (EPA / NIEHS)
